According to paper PMC7334503:
Results are given in words; binding and its absence hold for the method and conditions named. Binding seen in cells or lysates may run through a third protein. Some entries that bind do so weakly or less than the wild type. Where a sequence is shown, tags or fusion partners need not be part of it.

B1: FY (WDR33) (protein, UniProt Q6NLV4 1-647)
chain: MYAGGDMHRGSQMPQPPMMRQSSASSTNINPDYHHPSGPFDPNVDSFGAKRMRKHTQRRAVDYTSTVVRYIQARTWQRDSRDRTTLQPTPAAAVDMLPTVAYSDNPSTSFAAKFVHASLNKNRCSINRVLWTPSGRRLITGSQSGEFTLWNGQSFNFEMILQAHDQPIRSMVWSHNENYMVSGDDGGTLKYWQNNMNNVKANKTAHKESIRDLSFCKTDLKFCSCSDDTTVKVWDFTKCVDESSLTGHGWDVKSVDWHPTKSLLVSGGKDQLVKLWDTRSGRELCSLHGHKNIVLSVKWNQNGNWLLTASKDQIIKLYDIRTMKELQSFRGHTKDVTSLAWHPCHEEYFVSGSSDGSICHWIVGHENPQIEIPNAHDNSVWDLAWHPIGYLLCSGSNDHTTKFWCRNRPADNPRDVLMQNQGYNEQGFGRQPDNFQPSEASPIPGAFVPGLTRNEGTIPGIGIAMPFDASSQGDHKQPLPGSMALGAPPLPPGPHPSLLGSGQQQGYQQQQQHQGHPQQMLPMPNMPHHQLPPSSHMPLHPHHLPRPMQMPPHGHMPPPSMPMSHQMPGSMGMQGGMNPQMSQSHFMGAPSGVFQGQPNSGGPQMYPQGRGGFNRPQMIPGYNNPFQQQQQPPLPPGPPPNNNQQHQ

What was measured:
[1] = biological target: T1, FLD tagged at the carboxyl terminus with FLAG-TAP epitopes (FLD-FLAG-TAP) (Arabidopsis thaliana) (UniProt Q9CAE3); experiment: co-IP; stable transgenic plants, F1 of FLD-FLAG-TAP line crossed with SDG26-GFP line (or with sdg26 mutant as control); immunoblot
T1 sequence: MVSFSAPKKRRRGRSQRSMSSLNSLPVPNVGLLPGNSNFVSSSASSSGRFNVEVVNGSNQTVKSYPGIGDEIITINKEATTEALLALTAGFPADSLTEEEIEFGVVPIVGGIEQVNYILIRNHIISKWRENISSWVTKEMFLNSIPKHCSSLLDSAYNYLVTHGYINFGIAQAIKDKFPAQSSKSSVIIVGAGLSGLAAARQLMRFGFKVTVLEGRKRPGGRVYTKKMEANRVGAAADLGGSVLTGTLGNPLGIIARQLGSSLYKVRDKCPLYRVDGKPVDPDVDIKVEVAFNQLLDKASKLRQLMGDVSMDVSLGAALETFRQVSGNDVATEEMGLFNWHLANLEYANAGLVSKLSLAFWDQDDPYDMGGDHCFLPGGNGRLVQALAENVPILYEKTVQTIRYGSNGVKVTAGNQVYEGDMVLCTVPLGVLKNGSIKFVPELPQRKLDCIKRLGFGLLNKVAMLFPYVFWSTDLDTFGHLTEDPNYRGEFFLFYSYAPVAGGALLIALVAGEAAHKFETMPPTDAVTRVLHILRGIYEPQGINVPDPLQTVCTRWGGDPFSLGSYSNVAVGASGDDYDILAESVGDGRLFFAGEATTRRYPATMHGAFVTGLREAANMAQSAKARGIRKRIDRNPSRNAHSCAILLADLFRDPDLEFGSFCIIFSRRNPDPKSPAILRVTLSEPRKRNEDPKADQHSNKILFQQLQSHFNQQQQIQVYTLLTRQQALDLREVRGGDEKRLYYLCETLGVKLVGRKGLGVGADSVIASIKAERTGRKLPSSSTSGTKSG

[2] = biological target: T2, SDG26-FLAG-TAP (Arabidopsis thaliana) (UniProt Q84WW6); experiment: co-IP; cross-linked nuclear immunoprecipitation of SDG26 from an SDG26-FLAG-TAP transgenic line, probed with an FY antibody
T2 sequence: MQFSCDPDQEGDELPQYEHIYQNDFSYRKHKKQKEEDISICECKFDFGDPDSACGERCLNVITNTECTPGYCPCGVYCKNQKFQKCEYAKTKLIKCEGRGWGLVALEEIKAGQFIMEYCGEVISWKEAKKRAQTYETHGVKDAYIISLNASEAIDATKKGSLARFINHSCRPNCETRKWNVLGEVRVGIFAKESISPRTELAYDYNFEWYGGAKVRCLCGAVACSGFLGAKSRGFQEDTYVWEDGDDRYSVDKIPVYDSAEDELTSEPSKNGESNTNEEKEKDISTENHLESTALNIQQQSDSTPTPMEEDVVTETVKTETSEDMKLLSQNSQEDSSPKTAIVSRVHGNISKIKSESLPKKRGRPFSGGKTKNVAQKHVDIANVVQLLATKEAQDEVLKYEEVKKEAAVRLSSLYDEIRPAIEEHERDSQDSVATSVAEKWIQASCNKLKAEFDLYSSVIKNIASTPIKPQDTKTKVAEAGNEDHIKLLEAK

Molecule | binding [1] | binding [2]
SDG26-GFP (from UniProt Q84WW6 1-492) | binds | –
B1 | – | binds
